Source: PubChem BioAssay AID504467 (National Center for Advancing Translational Sciences (NCATS), 2011)
The campaign covered roughly 330,000 compounds. About 7,700 (2.3%) were called active. Inconclusive results, whose numbers are uncertain, are shown with a selection of clear calls. The call rests on the fitted dose curve; in most records, active means well fitted inhibition curve with a large enough effect; inconclusive means small, poorly fitted or top-dose-only effect, or effect the other way; inactive means flat fitted curve, though single readings scatter. Potencies of inconclusive entries are doubtful fits and often do not repeat.

assay: qHTS screen for small molecules that inhibit ELG1-dependent DNA repair in human embryonic kidney (HEK293T) cells expressing luciferase-tagged ELG1; conditions: HEK293T ELG1-luciferase reporter, luminescence, 16 h, DNA damage induced by 5-fluorouridine; activity change, negative = inhibition: at 46.1 µM (top of the series); further: nearly all actives have a fitted effect of over 55% in size
Outline: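 In this reporter screen, reduction of luminescence relative to DMSO vehicle indicated activity. Compounds and 5-fluorouridine were added together to 2,000 cells per well, incubated for 16 hr at 37 °C, then developed with ONE-Glo.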
On the % scale 0 is the no-effect control and ±100 the full control effect; potency means the concentration at half of the fitted maximal effect.

Question: Which “activity change, negative = inhibition” value does the source give for `CN(C)C(=O)c1c(C(F)(F)F)nn(C)c1Cl` here?
Answer: inactive: -9.2%

Question: Which “activity change, negative = inhibition” value does the source give for `O=C(O)CCCNc1ccc(S(=O)(=O)Nc2ccccc2C(=O)O)cc1C(=O)O` here?
Answer: inactive: 11.6%

Question: Which Potency does the source give for `CCOC(=O)N1CCN(C2CC(=O)N(c3ccc(Oc4ccccc4)cc3)C2=O)CC1` (centres undefined) here?
Answer: inconclusive: 29.1 µM [inhibitor, single point]

Question: Which Potency does the source give for `COc1ccc(/C(=N/Nc2ncnc3ccccc23)C(=O)O)cc1` here?
Answer: inconclusive: 3.66 µM [activator, full curve]

Question: With `C=CCNc1nnc(SC2CC(=O)N(c3ccc(OC)cc3)C2=O)s1` (centres undefined) as the compound, how does the “activity change, negative = inhibition” value read?
Answer: inactive: 9.42%

Question: Which Potency does the source give for `COc1cccc(NC(=O)C(Sc2nnnn2C)c2ccccc2)c1` (centres undefined) here?
Answer: inconclusive: 0.0103 µM [activator, partial curve, poor fit]

Question: With `CCCCCCCCCCOC(=O)Cn1c(COc2cccc(C)c2)[n+](C)c2ccccc21` as the compound, how does the “activity change, negative = inhibition” value read?
Answer: inactive: -2.8%

Question: For `CC[C@@]12C(=O)N(c3ccc(C)cc3)C(=O)N1[C@H](c1ccc(OC)cc1)[C@@H]1C(=O)N(C(C)(C)C)C(=O)[C@@H]12`, which “activity change, negative = inhibition” value is on record?
Answer: inactive: 14.6%

Question: With `COc1cccc(NC(=O)CSc2nnc(-c3cc(C)n(-c4ccccc4)c3C)o2)c1` as the compound, how does the Potency read?
Answer: inconclusive: 5.17 µM [activator, partial curve]

Question: Which Potency does the source give for `O=C(CCCOc1ccc(Cl)cc1Cl)NCCc1ccccn1` here?
Answer: inconclusive: 18.3 µM [activator, partial curve]

Question: For `Cc1ccc2c(ccc(=S)n2C)c1`, which Potency is on record?
Answer: inconclusive: 25.9 µM [activator, single point]

Question: For `Cc1ccc(OCCSc2nc3ncnc(N)c3[nH]2)cc1`, which “activity change, negative = inhibition” value is on record?
Answer: inactive: -2.75%

Question: For `CC(C)[C@H](NC(=O)OCc1ccccc1)C(=O)OCC(=O)NC1CCCCC1`, which Potency is on record?
Answer: inconclusive: 11.6 µM [activator, partial curve, poor fit]

Question: Which “activity change, negative = inhibition” value does the source give for `CCCCn1c(N)c(N(CCOC)C(=O)c2cc(-c3ccc(OC)cc3)nc3ccccc23)c(=O)[nH]c1=O` here?
Answer: inactive: -0.819%

Question: Which Potency does the source give for `O=C(COc1cccc2cccnc12)Nc1nccs1` here?
Answer: inconclusive: 29.1 µM [activator, partial curve, poor fit]

Question: Which Potency does the source give for `O=C(NCC(c1cccnc1)N1CCN(c2ccccc2)CC1)OCc1ccccc1` (centres undefined) here?
Answer: inconclusive: 20.6 µM [inhibitor, partial curve, poor fit]

Question: For `CCCCn1c(N)c(N(Cc2ccccc2OC)C(=O)C(C)C)c(=O)[nH]c1=O`, which Potency is on record?
Answer: inconclusive: 18.3 µM [inhibitor, single point]

Question: For `COCCCNC(=O)c1ccccc1Sc1ccc(NC(C)=O)nc1`, which “activity change, negative = inhibition” value is on record?
Answer: inactive: 8.41%

Question: With `COc1ccc(NC(=O)C2CCN(c3cc(C)nc(-c4ccccc4)n3)CC2)cc1` as the compound, how does the Potency read?
Answer: inconclusive: 23.1 µM [inhibitor, single point]
